{
  "sequences": {"note": "The chains behind the UniProt entries cited, without tags or fusion partners. Residues count along the entry.", "UniProt P11021, residues 19-654": "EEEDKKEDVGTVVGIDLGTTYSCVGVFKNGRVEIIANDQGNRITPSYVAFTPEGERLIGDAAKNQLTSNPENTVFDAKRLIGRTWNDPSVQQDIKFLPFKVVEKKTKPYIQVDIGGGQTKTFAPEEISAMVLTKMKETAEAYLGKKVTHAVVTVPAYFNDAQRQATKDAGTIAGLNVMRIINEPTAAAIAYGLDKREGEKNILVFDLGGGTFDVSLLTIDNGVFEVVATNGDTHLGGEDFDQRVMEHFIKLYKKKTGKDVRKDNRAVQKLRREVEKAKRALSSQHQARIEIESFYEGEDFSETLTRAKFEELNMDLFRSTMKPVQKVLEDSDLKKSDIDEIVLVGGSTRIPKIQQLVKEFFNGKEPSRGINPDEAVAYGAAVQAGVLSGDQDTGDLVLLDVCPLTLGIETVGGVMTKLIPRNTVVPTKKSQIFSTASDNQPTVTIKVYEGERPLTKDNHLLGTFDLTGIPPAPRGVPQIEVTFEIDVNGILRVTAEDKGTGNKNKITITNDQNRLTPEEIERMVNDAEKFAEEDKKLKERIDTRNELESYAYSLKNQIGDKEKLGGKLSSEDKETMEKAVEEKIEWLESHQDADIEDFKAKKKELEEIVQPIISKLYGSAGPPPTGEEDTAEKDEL", "UniProt Q00610": "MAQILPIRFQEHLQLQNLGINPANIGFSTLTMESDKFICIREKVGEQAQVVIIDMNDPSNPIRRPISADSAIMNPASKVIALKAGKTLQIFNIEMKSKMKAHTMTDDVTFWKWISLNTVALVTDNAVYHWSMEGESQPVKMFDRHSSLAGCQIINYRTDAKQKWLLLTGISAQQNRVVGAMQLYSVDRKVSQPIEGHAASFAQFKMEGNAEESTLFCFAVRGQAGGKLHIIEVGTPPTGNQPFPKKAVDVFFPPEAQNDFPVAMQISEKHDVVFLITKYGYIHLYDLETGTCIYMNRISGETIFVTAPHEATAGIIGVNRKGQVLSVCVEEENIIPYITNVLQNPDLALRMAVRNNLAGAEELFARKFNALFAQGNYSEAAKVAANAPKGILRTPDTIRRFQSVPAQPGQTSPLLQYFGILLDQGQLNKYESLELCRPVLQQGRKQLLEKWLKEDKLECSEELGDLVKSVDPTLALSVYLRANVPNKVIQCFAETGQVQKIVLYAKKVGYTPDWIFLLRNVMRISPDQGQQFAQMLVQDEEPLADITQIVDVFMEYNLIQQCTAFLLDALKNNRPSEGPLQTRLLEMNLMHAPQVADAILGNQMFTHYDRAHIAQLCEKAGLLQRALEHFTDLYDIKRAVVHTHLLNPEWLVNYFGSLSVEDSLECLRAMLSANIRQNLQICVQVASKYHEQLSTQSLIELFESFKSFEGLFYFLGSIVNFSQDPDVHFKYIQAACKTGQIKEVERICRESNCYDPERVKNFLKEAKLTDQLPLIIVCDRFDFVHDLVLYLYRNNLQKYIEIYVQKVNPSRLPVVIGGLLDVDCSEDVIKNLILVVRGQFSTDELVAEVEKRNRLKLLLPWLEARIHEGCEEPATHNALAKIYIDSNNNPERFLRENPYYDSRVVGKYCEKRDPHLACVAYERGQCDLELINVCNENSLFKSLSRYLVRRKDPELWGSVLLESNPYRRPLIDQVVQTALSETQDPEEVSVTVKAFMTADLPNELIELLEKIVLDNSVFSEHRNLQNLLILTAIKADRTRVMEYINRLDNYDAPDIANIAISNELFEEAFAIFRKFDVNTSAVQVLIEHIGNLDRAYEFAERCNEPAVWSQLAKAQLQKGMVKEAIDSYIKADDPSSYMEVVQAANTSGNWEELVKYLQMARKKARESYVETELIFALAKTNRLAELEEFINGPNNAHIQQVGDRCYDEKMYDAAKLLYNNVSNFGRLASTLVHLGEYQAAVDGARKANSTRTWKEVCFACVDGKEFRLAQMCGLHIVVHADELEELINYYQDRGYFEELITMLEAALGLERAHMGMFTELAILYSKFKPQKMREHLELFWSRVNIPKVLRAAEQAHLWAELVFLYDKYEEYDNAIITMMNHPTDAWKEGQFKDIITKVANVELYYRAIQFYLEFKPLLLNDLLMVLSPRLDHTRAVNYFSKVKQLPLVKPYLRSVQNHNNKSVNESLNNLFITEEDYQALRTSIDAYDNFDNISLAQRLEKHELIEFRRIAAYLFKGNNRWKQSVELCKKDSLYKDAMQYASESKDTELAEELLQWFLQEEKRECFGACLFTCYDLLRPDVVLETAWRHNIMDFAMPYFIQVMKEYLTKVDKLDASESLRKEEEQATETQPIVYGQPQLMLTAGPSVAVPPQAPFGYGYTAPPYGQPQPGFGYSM", "UniProt Q9UJS0": "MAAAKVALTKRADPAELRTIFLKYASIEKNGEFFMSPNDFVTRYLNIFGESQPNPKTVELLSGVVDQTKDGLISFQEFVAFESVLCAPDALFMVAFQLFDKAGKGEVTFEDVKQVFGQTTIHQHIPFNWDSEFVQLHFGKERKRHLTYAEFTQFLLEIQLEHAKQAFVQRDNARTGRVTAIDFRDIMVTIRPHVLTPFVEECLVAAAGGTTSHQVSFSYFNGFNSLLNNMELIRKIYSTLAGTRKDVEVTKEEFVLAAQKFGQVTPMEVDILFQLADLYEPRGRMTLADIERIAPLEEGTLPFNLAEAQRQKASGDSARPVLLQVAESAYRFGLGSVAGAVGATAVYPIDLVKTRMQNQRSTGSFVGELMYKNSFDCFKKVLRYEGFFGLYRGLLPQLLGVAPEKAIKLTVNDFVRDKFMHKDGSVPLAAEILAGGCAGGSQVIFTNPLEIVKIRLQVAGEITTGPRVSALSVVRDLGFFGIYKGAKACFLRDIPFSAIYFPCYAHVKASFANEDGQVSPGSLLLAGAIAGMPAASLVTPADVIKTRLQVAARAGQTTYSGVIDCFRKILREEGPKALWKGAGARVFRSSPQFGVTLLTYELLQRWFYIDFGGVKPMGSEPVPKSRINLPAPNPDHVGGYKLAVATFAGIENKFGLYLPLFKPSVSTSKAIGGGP", "UniProt O60506": "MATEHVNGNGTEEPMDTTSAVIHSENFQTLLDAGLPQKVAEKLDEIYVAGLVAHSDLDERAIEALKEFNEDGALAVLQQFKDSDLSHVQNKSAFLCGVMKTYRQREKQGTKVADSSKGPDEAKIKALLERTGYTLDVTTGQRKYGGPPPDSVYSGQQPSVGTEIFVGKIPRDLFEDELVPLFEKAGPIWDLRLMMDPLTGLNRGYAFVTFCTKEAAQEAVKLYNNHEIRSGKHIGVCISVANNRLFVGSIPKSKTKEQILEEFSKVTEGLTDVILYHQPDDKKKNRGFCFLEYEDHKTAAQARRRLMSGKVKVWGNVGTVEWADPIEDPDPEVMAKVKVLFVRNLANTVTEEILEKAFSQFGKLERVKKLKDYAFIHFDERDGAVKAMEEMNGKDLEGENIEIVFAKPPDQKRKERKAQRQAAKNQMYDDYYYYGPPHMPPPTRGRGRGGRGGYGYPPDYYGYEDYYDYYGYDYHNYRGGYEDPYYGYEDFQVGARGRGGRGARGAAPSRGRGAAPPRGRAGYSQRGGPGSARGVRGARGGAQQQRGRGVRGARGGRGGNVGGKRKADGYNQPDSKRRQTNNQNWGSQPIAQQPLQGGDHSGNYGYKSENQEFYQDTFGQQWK", "UniProt P48681": "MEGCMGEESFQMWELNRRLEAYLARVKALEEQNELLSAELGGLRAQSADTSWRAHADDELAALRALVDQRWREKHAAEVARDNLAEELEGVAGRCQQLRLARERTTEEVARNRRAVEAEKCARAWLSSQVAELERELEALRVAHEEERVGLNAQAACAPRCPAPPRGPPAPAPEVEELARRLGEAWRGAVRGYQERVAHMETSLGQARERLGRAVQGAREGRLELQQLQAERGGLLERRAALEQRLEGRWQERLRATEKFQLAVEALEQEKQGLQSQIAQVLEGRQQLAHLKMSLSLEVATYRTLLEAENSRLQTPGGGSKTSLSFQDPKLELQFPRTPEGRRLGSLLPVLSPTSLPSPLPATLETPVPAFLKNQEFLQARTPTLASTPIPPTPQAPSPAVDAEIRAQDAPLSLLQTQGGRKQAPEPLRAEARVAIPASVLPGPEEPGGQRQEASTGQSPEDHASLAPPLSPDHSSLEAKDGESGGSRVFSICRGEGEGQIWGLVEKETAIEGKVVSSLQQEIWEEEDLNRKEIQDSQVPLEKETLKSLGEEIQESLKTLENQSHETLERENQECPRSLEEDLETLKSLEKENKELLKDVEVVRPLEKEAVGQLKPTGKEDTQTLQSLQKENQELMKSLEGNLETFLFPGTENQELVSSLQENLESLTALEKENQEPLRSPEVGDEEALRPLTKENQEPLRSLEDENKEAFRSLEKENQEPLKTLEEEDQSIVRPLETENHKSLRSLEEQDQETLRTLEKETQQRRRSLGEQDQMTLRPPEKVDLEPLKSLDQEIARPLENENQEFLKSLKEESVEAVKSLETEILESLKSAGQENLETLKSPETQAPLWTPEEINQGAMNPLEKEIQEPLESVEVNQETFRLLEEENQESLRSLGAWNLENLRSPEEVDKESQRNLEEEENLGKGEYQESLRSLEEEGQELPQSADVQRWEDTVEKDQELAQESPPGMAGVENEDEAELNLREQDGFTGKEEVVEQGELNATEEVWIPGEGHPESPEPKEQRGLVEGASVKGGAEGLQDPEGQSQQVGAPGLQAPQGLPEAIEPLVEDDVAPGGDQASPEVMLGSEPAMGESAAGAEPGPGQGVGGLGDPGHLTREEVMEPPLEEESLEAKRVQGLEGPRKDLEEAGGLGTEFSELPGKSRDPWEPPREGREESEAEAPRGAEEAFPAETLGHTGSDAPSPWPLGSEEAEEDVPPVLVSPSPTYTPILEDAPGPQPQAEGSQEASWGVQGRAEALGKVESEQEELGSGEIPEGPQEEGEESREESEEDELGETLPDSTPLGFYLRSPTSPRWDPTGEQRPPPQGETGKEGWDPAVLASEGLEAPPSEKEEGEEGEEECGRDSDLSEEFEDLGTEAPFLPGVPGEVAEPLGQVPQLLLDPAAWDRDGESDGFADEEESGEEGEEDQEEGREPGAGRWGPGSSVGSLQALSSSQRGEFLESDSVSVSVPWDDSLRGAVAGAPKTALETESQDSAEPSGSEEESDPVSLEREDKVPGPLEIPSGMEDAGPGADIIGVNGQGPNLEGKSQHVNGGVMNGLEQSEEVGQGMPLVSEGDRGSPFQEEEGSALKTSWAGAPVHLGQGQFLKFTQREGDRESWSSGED", "UniProt P27824, residues 21-592": "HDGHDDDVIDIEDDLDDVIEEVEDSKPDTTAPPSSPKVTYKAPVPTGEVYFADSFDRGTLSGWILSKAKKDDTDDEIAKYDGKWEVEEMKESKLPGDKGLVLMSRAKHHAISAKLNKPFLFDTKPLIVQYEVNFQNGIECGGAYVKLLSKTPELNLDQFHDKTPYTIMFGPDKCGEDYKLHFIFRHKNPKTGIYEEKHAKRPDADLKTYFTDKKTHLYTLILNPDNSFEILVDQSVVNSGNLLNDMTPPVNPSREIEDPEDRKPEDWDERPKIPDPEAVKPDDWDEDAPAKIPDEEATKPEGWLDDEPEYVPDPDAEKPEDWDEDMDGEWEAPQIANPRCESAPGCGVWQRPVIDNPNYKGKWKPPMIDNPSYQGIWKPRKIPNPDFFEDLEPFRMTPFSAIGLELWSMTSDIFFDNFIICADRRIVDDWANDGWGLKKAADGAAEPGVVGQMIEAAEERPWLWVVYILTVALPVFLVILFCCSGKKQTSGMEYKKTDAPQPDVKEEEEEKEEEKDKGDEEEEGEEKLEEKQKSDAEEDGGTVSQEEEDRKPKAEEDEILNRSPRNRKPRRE", "UniProt P07237, residues 18-508": "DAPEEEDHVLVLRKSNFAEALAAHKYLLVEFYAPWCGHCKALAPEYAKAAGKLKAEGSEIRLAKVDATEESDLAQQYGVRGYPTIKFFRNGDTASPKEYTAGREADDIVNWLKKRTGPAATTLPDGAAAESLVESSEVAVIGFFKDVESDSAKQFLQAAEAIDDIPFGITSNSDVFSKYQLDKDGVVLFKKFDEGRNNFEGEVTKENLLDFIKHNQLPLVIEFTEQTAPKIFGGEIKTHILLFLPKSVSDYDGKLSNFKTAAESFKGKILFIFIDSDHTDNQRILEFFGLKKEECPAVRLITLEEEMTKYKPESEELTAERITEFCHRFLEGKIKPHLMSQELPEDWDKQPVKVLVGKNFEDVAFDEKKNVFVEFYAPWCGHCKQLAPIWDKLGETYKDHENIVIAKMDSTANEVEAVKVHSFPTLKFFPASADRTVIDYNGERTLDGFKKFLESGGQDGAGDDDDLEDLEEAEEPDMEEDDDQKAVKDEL"},
  "source": "paper PMC4686535",
  "molecules": {"B1": {"name": "TMEM33 (protein, UniProt P57088 1-247)", "chain": "MADTTPNGPQGAGAVQFMMTNKLDTAMWLSRLFTVYCSALFVLPLLGLHEAASFYQRALLANALTSALRLHQRLPHFQLSRAFLAQALLEDSCHYLLYSLIFVNSYPVTMSIFPVLLFSLLHAATYTKKVLDARGSNSLPLLRSVLDKLSANQQNILKFIACNEIFLMPATVFMLFSGQGSLLQPFIYYRFLTLRYSSRRNPYCRTLFNELRIVVEHIIMKPACPLFVRRLCLQSIAFISRLAPTVP"}, "B2": {"name": "PDIA6 (enzyme, UniProt Q15084 20-440)", "chain": "LYSSSDDVIELTPSNFNREVIQSDSLWLVEFYAPWCGHCQRLTPEWKKAATALKDVVKVGAVDADKHHSLGGQYGVQGFPTIKIFGSNKNRPEDYQGGRTGEAIVDAALSALRQLVKDRLGGRSGGYSSGKQGRSDSSSKKDVIELTDDSFDKNVLDSEDVWMVEFYAPWCGHCKNLEPEWAAAASEVKEQTKGKVKLAAVDATVNQVLASRYGIRGFPTIKIFQKGESPVDYDGGRTRSDIVSRALDLFSDNAPPPELLEIINEDIAKRTCEEHQLCVVAVLPHILDTGAAGRNSYLEVLLKLADKYKKKMWGWLWTEAGAQSELETALGIGGFGYPAMAAINARKMKFALLKGSFSEQGINEFLRELSFGRGSTAPVGGGAFPTIVEREPWDGRDGELPVEDDIDLSDVELDDLGKDEL"}, "B3": {"name": "THY1 (protein, UniProt P04216 20-130)", "chain": "QKVTSLTACLVDQSLRLDCRHENTSSSPIQYEFSLTRETKKHVLFGTVGVPEHTYRSRTNFTSKYNMKVLYLSAFTSKDEGTYTCALHHSGHSPPISSQNVTVLRDKLVKC"}},
  "note": "No constants are given. Whether binding was seen depends on the method and setting. Binding seen in cells or lysates may run through a third protein. A yes stands for co-enrichment or nearness to the bait. Other partners may have been found. Tags and fused reporters may be left off the sequences shown.",
  "data": [
    {"biological_target": "T1, wild type US2 with three HA tags added to the C-terminus (human cytomegalovirus) (UniProt P09713)", "T1 sequence": "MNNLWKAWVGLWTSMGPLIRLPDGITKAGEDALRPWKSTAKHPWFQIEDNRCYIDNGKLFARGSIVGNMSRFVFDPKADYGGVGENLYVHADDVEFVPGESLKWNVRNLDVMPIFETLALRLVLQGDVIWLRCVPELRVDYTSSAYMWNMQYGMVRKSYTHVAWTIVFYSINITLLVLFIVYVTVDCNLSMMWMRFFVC", "assay": "affinity purification with mass spectrometry; stable U373-MG lines (US2-3xHA with nonsense shRNA, CypC knock-down or CypC overexpression; US2 + HA-HLA-A68), 8 h 25 uM MG132, lysed in 1% digitonin, anti-HA agarose beads, LC-MS/MS (Orbitrap Elite), background of U373-MG + nonsense shRNA cells subtracted", "values": [
      {"molecule": "B1", "binding": "binds"},
      {"molecule": "B2", "binding": "binds"},
      {"molecule": "B3", "binding": "binds"}
    ]},
    {"biological_target": "T1, wild type US2 with three HA tags added to the C-terminus (human cytomegalovirus)", "assay": "affinity purification with mass spectrometry; stable U373-MG lines (US2-3xHA with nonsense shRNA, CypC knock-down or CypC overexpression; US2 + HA-HLA-A68), 8 h 25 uM MG132, lysed in 1% digitonin, anti-HA agarose beads, LC-MS/MS (Orbitrap Elite), background of U373-MG + nonsense shRNA cells subtracted", "remark": "another data set of the same source", "values": [
      {"molecule": "BiP (from UniProt P11021 19-654)", "binding": "binds"},
      {"molecule": "CLH1 (CLTC) (from UniProt Q00610 1-1675)", "binding": "binds"},
      {"molecule": "CMC2 (SLC25A13) (from UniProt Q9UJS0 1-675)", "binding": "binds"},
      {"molecule": "HNRPQ (SYNCRIP) (from UniProt O60506 1-623)", "binding": "binds"},
      {"molecule": "NEST (NES) (from UniProt P48681 1-1621)", "binding": "binds"},
      {"molecule": "calnexin (from UniProt P27824 21-592)", "binding": "binds"},
      {"molecule": "calreticulin (from UniProt P27797 18-417)", "binding": "binds"},
      {"molecule": "p97 (TERA) (from UniProt P55072 1-806)", "binding": "binds"},
      {"molecule": "protein disulfide isomerase (from UniProt P07237 18-508) (enzyme)", "binding": "binds"}
    ]}
  ]
}
